From PubChem BioAssay AID248 (DTP/NCI, 2004)
The list shows only some results of the screen, not a fair sample: it is rich in T/C values a quarter to a half above the control, in often repeated tests (any T/C) and in doses without a T/C. Other doses and runs of a compound stand elsewhere. T/C gives the treated animals as a percentage of the vehicle group. For survival time, the PubChem record calls one and a half times the control and up active, and a quarter to a half above the control has no call in these data; cut-offs in other NCI protocols can differ. Schedules are NCI's codes, read here as Q, the interval in days (D) or hours (H), X, the number of doses. Some T/C values carry the count of animals alive at the toxicity check (mostly the fifth day); without a count, all were alive then. Some doses were run more than once; the results are listed from low to high. Brackets with × count equal records among those shown. Some schedule codes hold Z or #, which are not explained here.

Tested on: L1210 leukemia ip in BDF1 mice, survival T/C
Assay: NCI In Vivo Anticancer Drug Screen. Data for tumor model L1210 Leukemia (intraperitoneal) in B6D2F1 (BDF1) mice
Conditions: T/C endpoint: mean survival time, higher T/C = longer survival

SMILES: O=NN(CCCl)C(=O)NCCCl
- T/C (dose: 0.5 mg/kg/injection, schedule: Q#A X Z (oral), vehicle: saline): 125 % of control
- T/C (dose: 0.6 mg/kg/injection, schedule: Q01DX Z (ip), vehicle: saline): 139 % of control
- T/C (dose: 0.75 mg/kg/injection, schedule: Q01DX009 (ip), vehicle: saline): 125 % of control
- T/C (dose: 0.75 mg/kg/injection, schedule: Q01DX015 (ip), vehicle: saline): 129 % of control
- T/C (dose: 0.75 mg/kg/injection, schedule: Q13HX018 (ip), vehicle: saline): 141 % of control
- T/C (dose: 0.9 mg/kg/injection, schedule: Q01DX009 (ip), vehicle: saline + alcohol): 134 % of control
- T/C (dose: 1.25 mg/kg/injection, schedule: Q01DX009 (ip), vehicle: saline): 129, 132, 137, 150 % of control
- T/C (dose: 1.3 mg/kg/injection, schedule: Q01DX010 (ip), vehicle: saline): 140 % of control
- T/C (dose: 1.5 mg/kg/injection, schedule: Q01DX009 (ip), vehicle: saline): 144 % of control
- T/C (dose: 1.5 mg/kg/injection, schedule: Q01DX009 (sc), vehicle: saline): 127 % of control
- T/C (dose: 1.5 mg/kg/injection, schedule: Q01DX015 (ip), vehicle: saline): 145 % of control
- T/C (dose: 1.5 mg/kg/injection, schedule: Q## X024 (oral), vehicle: saline): 142 % of control
- T/C (dose: 1.56 mg/kg/injection, schedule: Q01DX Z (ip), vehicle: carboxymethylcellulose (CMC)): 127 % of control
- T/C (dose: 1.8 mg/kg/injection, schedule: Q01DX009 (ip), vehicle: saline + alcohol): 144, 155, 156, 157 % of control
- T/C (dose: 2.0 mg/kg/injection, schedule: Q01DX009 (ip), vehicle: Klucel (hydroxypropylcellulose) (HPC)): 125, 139, 140, 150 % of control
- T/C (dose: 2.0 mg/kg/injection, schedule: Q01DX009 (ip), vehicle: saline + alcohol): 124, 133, 140, 143, 145, 148, 155 % of control
- T/C (dose: 2.0 mg/kg/injection, schedule: Q01DX009 (ip), vehicle: saline, evaluated on day 30): 119, 138, 151, 159, 160 (2×), 162 [5 of 6 alive], 166 (2×), 170, 177, 180, 182, 293 % of control
- T/C (dose: 2.0 mg/kg/injection, schedule: Q01DX009 (ip), vehicle: saline, evaluated on day 60): 137, 152, 153, 158 % of control
- T/C (dose: 2.0 mg/kg/injection, schedule: Q01DX Z (oral), vehicle: saline): 129 % of control
- T/C (dose: 2.33 mg/kg/injection, schedule: Q02DX010 (ip), vehicle: other): 148 % of control
- T/C (dose: 2.5 mg/kg/injection, schedule: Q01DX009 (ip), vehicle: saline): 179, 192, 204, 231 % of control
- T/C (dose: 3.0 mg/kg/injection, schedule: Q01DX001 (ip), vehicle: saline): 131 % of control
- T/C (dose: 3.0 mg/kg/injection, schedule: Q01DX005 (oral), vehicle: saline): 147 % of control [9 of 10 alive]
- T/C (dose: 3.0 mg/kg/injection, schedule: Q## X003 (ip), vehicle: saline): 132 % of control
- T/C (dose: 3.0 mg/kg/injection, schedule: Q## X024 (ip), vehicle: saline): 145 % of control
- T/C (dose: 3.0 mg/kg/injection, schedule: Q## X Z (ip), vehicle: saline): 130 % of control
- T/C (dose: 3.5 mg/kg/injection, schedule: Q01DX009 (ip), vehicle: saline + alcohol): 181, 200, 234, 242 % of control
- T/C (dose: 3.5 mg/kg/injection, schedule: Q02DX010 (ip), vehicle: saline): 135 % of control
- T/C (dose: 4.0 mg/kg/injection, schedule: Q01DX001 (ip), vehicle: Klucel (hydroxypropylcellulose) (HPC)): 129 % of control
- T/C (dose: 4.0 mg/kg/injection, schedule: Q01DX001 (ip), vehicle: distilled water + alcohol): 132 % of control
- T/C (dose: 4.0 mg/kg/injection, schedule: Q01DX001 (ip), vehicle: other, evaluated on day 9): 129 % of control
- T/C (dose: 4.0 mg/kg/injection, schedule: Q01DX001 (ip), vehicle: other, evaluated on day 60): 132 % of control
- T/C (dose: 4.0 mg/kg/injection, schedule: Q01DX006 (iv), vehicle: saline): 141 % of control
- T/C (dose: 4.0 mg/kg/injection, schedule: Q01DX009 (ip), vehicle: Klucel (hydroxypropylcellulose) (HPC)): 162, 164, 168, 178 % of control
- T/C (dose: 4.0 mg/kg/injection, schedule: Q01DX009 (ip), vehicle: saline + alcohol): 157, 170, 171, 183, 194, 200, 220 % of control
- T/C (dose: 4.0 mg/kg/injection, schedule: Q01DX009 (ip), vehicle: saline, evaluated on day 30): 146, 167, 200, 206, 213, 216, 220, 227, 233, 262 [4 of 6 alive], 265, 291, 326, 329 % of control
- T/C (dose: 4.0 mg/kg/injection, schedule: Q01DX009 (ip), vehicle: saline, evaluated on day 60): 205, 211, 266, 274 % of control
- T/C (dose: 4.0 mg/kg/injection, schedule: Q01DX Z (oral), vehicle: saline): 149 % of control
- T/C (dose: 4.0 mg/kg/injection, schedule: Q04DX002 (ip), vehicle: saline + alcohol): 128 and 130 % of control
- T/C (dose: 4.2 mg/kg/injection, schedule: Q02DX008 (ip), vehicle: other): 141 % of control
- T/C (dose: 4.5 mg/kg/injection, schedule: Q03HX032 (ip), vehicle: saline + alcohol): 144 % of control
- T/C (dose: 4.5 mg/kg/injection, schedule: Q## X032 (ip), vehicle: saline + alcohol): 144 % of control
- T/C (dose: 5.0 mg/kg/injection, schedule: Q01DX001 (ip), vehicle: other): 126 % of control
- T/C (dose: 5.0 mg/kg/injection, schedule: Q01DX009 (ip), vehicle: saline): 138, 292, 324, 375 % of control
- T/C (dose: 6.0 mg/kg/injection, schedule: Q01DX001 (ip), vehicle: saline): 145 % of control
- T/C (dose: 6.0 mg/kg/injection, schedule: Q01DX001 (sc), vehicle: saline): 137 % of control
- T/C (dose: 6.0 mg/kg/injection, schedule: Q03DX Z (oral), vehicle: saline): 139 % of control
- T/C (dose: 6.0 mg/kg/injection, schedule: Q13HX018 (ip), vehicle: saline): 131 % of control
